Results are given in words; binding and its absence hold for the method and conditions named. Binding seen in cells or lysates may run through a third protein.
Target: Wnt3 (human (endogenous in DLD-1)) (UniProt P56703)
Experiment: co-IP; Wnt3 immunoprecipitated from whole lysates of DLD-1 cells, immunoblot with (P)RR antibody; the protocol is only cited (ref. 31)

Protein sequences, listed by entry. Tags and fused reporters are not part of them. Residues count along the entry.
UniProt P56703, residues 22-355: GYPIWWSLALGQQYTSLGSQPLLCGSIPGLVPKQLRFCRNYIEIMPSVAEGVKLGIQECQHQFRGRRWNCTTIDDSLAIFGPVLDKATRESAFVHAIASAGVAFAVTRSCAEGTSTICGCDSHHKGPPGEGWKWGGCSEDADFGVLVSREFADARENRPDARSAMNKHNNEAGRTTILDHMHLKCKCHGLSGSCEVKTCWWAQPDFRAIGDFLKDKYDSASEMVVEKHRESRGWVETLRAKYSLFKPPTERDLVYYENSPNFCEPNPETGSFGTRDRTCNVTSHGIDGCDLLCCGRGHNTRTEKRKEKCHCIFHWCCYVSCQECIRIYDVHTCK
UniProt O75787, residues 17-350: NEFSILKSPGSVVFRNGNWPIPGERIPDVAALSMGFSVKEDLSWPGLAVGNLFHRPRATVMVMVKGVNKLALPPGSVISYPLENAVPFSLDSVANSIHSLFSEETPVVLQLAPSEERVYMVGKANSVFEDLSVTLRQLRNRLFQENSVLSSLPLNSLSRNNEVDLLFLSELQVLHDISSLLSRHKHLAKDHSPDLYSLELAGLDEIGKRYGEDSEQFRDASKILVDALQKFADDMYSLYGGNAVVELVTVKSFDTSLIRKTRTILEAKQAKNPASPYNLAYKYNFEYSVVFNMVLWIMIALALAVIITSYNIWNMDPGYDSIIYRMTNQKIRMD

With “(Pro)renin receptor (from UniProt O75787 17-350)” the binding was “no binding”.

— article PMC6342928
